Reference: patent publication US10117948B2, “Selective arylation of dichalcogenides in biomolecules” (priority 2015, dated 2018)
≈ marks a conversion by molar mass, not a printed value.

Tests used:
Test in all cases: MIC screening, vancomycin vs vancomycin/peptide conjugates
Format in all cases: cell-based
[1] = test system: S. aureus MSSA: QC (MMX 100, ATCC 29213); conditions: Staphylococcus aureus
Excerpt: (§1) Vancomycin was conjugated to a variety of antibacterial peptides and screened against (a) resistant strains of gram-positive bacteria and b) gram-negative bacteria. See FIG. 20, FIG. 21, FIG. 22, and Table 3.

[2] = test system: E. coli QC (MMX 102, ATCC 25922); conditions: Escherichia coli, ATCC25922
Excerpt: as §1

[3] = test system: S. aureus MRSA (MMX 7778); conditions: Staphylococcus aureus
Excerpt: as §1

[4] = test system: P. aeruginosa QC (MMX 103, ATCC 27853); conditions: Pseudomonas aeruginosa, ATCC27853
Excerpt: as §1

What does the source list for CN[C@H](CC(C)C)C(=O)N[C@H]1C(=O)N[C@@H](CC(N)=O)C(=O)N[C@H]2C(=O)N[C@H]3C(=O)N[C@H](C(=O)N[C@H](C(=O)O)c4cc(O)cc(O)c4-c4cc3ccc4O)[C@H](O)c3ccc(c(Cl)c3)Oc3cc2cc(c3O[C@@H]2O[C@H](CO)[C@@H](O)[C@H](O)[C@H]2O[C@H]2C[C@](C)(N)[C@H](O)[C@H](C)O2)Oc2ccc(cc2Cl)[C@H]1O [vancomycin]?
MIC [1]: 1 µg/mL (≈ 0.69 µM); MIC [2]: > 64 µg/mL; MIC [3]: 1 µg/mL (≈ 0.69 µM); MIC [4]: > 64 µg/mL
